Test results taken from patent US5986108A, “4-substitued-3-[1 or 2 amino acid residue]-azetidin-2-one derivatives useful as cysteine proteinase inhibitor” (Synphar Laboratories, Inc., priority 1997, dated 1999).

By UniProt entry, the sequences of proteins in these tests, tags left out. Residues count along the entry.
UniProt P00787, 80-339: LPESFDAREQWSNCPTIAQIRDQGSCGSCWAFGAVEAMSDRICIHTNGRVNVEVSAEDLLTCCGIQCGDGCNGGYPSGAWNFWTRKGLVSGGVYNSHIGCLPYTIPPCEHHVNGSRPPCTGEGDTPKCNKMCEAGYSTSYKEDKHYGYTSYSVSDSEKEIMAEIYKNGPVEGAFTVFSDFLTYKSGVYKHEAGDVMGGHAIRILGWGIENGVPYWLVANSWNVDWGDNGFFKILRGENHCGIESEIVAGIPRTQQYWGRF

Target: Cathepsin B (Rattus norvegicus, UniProt P00787)
Experiment: In vitro assay of inhibition of Cathepsin B (N-CBZ-Phe-Arg-AMC substrate)
Format: biochemical
Description: After 10 min of incubation at room temperature a 20 μl of 5 mM substrate (N-CBZ-Phe-Arg-AMC, dissolved in DMSO) was added to initiate reaction. Reading is followed up for 10 min at the Fluoroscan reader (excitation at 380 nm, emission at 460 nm).

Structure (SMILES): CC(=O)O[C@@H]1NC(=O)[C@H]1NC(=O)[C@H](CC(C)C)NC(=O)OCc1ccccc1 [Example 8, (3S,4S)-3-(N-benzyloxycarbonyl-L-leucyl)-amino-4-acetoxy-azetidin-2-one]
- IC50: 1.46 µM
